From article PMC11219001 come the findings set out here.

Amino acid sequences for entries named in this document (tags omitted).
UniProt A0A125YUT6: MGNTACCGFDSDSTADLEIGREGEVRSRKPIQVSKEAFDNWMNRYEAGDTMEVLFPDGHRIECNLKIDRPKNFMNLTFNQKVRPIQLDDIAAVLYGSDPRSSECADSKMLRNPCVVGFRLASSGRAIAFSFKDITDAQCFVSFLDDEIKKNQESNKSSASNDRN

These are yes or no findings as the source states them, for the method shown. In cells and extracts the contact can be indirect. These calls come from enrichment with a bait or labelling near it, and not all partners need be listed. For part of these data: A no says only that the protein was not detected with the bait. Sequences can lack the tags named with a protein.

Test [1] concerns the target T1, IMC19-3×HA (Toxoplasma gondii (endogenous in PRU strain)).
T1 sequence: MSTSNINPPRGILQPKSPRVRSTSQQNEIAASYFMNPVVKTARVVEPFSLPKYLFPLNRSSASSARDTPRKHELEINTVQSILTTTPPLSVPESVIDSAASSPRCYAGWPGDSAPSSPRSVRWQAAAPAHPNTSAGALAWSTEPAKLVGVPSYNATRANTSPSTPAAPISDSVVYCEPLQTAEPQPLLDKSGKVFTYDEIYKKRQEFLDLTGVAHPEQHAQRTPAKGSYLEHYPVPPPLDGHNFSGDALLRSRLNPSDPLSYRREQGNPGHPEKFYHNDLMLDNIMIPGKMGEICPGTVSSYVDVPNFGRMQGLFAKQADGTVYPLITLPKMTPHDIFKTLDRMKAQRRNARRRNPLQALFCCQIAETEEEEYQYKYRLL
Description: affinity purification with mass spectrometry; IP of the endogenously 3×HA-tagged bait from T. gondii PRU lysate made by sonication (10mM Hepes-pH 7.9, 1.5mM MgCl2, 10mM KCl, 1mM DTT); SureBeads Protein G magnetic beads; 2 replicates; PRU WT as negative control; SAINTexpress, high confident hits FDR ≤ 0.01.

Test [2] addresses T2, TGME49_306650-3×HA (Toxoplasma gondii (endogenous in PRU strain)) (UniProt S8G6Z4).
T2 sequence: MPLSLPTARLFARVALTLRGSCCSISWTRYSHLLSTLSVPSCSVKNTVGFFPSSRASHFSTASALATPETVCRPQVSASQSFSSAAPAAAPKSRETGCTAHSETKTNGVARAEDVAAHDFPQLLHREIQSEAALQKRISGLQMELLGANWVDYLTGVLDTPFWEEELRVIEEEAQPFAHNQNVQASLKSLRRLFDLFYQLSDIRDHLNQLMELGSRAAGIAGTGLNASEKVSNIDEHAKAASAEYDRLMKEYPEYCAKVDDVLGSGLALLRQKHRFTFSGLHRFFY
Briefly: affinity purification with mass spectrometry; IP of the endogenously 3×HA-tagged bait from T. gondii PRU lysate made in 1% NP-40, 150 mM NaCl, 50 mM Tris pH 8.0, 5 mM EDTA, 1 hour at 4°C; SureBeads Protein G magnetic beads; 2 replicates; PRU WT as negative control; SAINTexpress.

On to ISP3 (from UniProt A0A125YUT6 1-164), for which, in test [1], the binding entry is recorded as “binds”. Regarding SDHA, in test [2], the binding result was “no binding”. Turning to succinate dehydrogenase subunit B, the binding entry in test [2] is listed as “no binding”.
